The targets with a hit were mostly taken out for another list; the other results follow. The data scatter; read single values as rough. The entries are a selection whose mix differs from that of the whole data set.
Each target was assayed with COC(=O)/C=C/c1ccccc1 [methyl cinnamate] (assay: log2 ratio of iodoacetamide-alkyne labeling of the cysteine site, DMSO over compound (competition); higher = stronger covalent engagement of the cysteine by the compound, active = 1 or more). Settings: 500 µM; treatment time 1 h; system: HEK293T cell lysate.
In short: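 Reporter intensities give each cysteine's log2 competition ratio as the mean of control channels over the mean of compound channels. The samples were HEK293T lysate (2 mg/mL) given vehicle or electrophile (500 µM, 1 h, ambient temperature), then iodoacetamide alkyne (1 h), followed by click coupling to sCIP-TMT reagents, pooling, trypsin digestion overnight at 37 °C, streptavidin enrichment, acid elution, Orbitrap Eclipse LC-MS/MS with FAIMS and FragPipe quantification. Duplicate channels and three replicates were run, and cysteines quantified in only one replicate were discarded.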

The chains behind the UniProt entries cited, without tags or fusion partners. Where a name states a change or a piece, a line headed by the entry shows the natural chain unless it says otherwise.
UniProt Q8IX01: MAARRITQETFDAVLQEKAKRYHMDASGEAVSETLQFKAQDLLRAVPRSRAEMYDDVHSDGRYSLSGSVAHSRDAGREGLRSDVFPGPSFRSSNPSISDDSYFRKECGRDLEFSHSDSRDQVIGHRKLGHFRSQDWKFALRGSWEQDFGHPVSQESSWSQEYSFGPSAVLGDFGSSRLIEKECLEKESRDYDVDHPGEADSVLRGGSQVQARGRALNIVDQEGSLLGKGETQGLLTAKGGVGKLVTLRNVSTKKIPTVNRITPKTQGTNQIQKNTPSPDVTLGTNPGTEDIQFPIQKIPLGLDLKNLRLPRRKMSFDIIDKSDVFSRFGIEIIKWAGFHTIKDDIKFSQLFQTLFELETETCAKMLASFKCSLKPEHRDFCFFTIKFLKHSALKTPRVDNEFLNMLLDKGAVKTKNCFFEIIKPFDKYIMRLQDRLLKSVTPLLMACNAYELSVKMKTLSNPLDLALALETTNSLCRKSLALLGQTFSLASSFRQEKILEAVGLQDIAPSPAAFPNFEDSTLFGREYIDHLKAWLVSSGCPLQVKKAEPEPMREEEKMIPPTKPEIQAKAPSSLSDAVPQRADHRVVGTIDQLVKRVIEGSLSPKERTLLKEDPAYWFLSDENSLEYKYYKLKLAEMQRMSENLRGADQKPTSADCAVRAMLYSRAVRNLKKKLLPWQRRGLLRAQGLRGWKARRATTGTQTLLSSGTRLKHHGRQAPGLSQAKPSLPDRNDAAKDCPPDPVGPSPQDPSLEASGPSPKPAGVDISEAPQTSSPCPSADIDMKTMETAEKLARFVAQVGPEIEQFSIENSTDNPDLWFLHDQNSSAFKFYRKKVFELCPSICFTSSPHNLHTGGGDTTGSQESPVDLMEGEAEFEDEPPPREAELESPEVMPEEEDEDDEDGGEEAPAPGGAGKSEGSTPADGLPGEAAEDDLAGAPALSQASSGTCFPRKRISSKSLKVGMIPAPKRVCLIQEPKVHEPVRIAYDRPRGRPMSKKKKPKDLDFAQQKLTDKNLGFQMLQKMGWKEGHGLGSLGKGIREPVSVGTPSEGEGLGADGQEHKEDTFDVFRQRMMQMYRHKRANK
UniProt Q86VP6: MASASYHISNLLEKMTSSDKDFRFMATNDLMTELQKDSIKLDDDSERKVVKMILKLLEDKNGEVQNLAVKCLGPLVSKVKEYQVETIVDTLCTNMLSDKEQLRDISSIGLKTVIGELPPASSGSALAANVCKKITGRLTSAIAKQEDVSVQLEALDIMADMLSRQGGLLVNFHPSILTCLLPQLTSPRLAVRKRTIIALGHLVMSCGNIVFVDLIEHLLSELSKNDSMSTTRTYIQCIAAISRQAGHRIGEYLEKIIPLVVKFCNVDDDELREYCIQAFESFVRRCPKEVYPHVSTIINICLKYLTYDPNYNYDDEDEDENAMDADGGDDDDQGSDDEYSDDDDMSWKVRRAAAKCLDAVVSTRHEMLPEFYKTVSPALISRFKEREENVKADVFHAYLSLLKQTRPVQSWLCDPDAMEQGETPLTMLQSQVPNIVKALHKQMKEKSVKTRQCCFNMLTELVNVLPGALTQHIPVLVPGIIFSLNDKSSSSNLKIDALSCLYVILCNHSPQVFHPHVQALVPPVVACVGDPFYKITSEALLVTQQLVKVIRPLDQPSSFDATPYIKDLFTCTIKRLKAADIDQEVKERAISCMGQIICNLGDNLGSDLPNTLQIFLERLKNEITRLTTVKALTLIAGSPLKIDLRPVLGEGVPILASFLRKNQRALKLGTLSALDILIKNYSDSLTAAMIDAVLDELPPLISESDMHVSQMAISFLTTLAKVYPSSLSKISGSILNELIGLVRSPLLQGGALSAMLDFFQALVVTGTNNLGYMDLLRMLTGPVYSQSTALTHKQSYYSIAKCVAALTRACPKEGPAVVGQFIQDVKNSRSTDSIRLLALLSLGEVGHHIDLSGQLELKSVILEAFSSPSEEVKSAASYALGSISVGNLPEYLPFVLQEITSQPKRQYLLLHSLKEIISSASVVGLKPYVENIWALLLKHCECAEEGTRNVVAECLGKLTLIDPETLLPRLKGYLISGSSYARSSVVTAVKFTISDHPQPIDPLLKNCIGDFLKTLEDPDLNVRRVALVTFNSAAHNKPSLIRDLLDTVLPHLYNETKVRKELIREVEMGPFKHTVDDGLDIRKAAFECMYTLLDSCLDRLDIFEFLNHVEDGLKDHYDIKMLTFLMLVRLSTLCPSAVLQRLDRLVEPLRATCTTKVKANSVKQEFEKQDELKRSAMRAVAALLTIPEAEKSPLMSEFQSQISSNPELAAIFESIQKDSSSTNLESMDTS
UniProt Q8IWS0: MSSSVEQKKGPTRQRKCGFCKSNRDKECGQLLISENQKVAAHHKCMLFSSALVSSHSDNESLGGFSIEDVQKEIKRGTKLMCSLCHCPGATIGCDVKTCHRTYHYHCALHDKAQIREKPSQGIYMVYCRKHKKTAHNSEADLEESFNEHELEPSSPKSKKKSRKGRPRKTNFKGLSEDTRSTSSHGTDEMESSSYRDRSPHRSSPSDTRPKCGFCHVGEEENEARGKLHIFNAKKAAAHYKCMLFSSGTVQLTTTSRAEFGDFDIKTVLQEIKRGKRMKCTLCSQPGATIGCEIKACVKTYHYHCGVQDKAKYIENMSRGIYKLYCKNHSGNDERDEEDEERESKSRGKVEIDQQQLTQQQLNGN
UniProt Q7Z333: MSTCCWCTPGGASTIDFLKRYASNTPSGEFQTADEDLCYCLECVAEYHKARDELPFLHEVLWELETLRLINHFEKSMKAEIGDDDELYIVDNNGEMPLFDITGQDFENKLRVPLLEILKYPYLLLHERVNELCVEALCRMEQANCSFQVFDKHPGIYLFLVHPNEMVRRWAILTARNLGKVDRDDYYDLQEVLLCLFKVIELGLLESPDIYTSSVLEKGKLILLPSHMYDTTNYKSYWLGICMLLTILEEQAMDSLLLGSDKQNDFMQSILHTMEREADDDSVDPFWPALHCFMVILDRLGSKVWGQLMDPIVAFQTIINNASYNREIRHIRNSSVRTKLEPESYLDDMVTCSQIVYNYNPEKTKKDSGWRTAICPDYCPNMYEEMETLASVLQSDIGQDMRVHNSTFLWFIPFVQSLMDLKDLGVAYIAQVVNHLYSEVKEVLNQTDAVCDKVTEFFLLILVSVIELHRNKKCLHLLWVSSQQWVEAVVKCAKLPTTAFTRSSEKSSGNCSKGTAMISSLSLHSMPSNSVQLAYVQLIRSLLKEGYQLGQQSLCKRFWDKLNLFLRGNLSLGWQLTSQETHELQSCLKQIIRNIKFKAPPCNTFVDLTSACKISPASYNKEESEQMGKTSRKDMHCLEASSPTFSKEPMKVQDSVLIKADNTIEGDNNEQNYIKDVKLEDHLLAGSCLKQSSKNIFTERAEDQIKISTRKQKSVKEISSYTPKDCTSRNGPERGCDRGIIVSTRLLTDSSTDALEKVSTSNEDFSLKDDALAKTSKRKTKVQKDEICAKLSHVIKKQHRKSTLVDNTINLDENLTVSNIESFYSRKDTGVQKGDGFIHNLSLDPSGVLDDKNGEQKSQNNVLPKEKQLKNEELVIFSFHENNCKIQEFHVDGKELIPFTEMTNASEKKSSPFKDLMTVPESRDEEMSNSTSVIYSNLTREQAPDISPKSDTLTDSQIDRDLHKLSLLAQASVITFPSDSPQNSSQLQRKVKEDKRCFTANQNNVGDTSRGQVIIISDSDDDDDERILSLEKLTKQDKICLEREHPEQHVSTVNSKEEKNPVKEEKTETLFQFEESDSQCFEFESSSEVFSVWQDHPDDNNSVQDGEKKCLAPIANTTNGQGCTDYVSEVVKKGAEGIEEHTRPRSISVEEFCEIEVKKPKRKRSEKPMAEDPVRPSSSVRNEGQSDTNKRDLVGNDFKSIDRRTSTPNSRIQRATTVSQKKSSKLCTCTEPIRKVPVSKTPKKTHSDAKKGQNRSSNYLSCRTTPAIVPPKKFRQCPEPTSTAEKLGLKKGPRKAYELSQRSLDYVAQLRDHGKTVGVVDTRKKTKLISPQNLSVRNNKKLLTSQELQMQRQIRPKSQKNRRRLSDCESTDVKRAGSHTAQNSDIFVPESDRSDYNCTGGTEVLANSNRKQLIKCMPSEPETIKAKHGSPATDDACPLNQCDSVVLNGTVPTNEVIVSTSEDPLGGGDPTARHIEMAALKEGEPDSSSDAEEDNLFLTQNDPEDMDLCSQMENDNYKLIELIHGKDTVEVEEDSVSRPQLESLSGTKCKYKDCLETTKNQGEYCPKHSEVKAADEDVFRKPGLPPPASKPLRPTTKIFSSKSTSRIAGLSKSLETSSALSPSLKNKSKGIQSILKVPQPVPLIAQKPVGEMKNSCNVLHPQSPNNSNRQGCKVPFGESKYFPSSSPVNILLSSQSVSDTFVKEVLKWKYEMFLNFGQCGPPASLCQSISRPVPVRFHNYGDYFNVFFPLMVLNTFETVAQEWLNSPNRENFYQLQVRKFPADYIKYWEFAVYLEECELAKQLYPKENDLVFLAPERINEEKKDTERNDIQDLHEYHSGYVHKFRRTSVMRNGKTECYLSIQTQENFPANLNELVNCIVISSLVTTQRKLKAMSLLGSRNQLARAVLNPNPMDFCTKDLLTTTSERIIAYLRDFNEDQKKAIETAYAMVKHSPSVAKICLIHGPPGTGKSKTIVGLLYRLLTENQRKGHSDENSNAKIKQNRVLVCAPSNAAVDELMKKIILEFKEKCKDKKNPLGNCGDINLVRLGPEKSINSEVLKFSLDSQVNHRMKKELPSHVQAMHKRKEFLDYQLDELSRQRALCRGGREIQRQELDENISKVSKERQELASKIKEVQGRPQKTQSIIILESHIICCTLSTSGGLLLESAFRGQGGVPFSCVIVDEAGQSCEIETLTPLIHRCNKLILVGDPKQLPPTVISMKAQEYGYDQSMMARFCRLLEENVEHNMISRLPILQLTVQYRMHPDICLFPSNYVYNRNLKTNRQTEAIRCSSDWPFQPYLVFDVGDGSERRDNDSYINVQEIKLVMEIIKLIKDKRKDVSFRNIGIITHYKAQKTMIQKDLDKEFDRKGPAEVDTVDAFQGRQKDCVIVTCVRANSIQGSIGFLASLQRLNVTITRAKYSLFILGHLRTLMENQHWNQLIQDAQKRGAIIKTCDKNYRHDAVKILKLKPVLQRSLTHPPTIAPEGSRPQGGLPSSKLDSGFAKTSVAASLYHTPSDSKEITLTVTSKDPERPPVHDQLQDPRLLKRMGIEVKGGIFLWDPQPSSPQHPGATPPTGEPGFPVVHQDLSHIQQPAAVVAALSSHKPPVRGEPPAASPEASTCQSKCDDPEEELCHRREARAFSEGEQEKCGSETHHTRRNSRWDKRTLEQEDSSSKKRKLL
UniProt Q86TI0: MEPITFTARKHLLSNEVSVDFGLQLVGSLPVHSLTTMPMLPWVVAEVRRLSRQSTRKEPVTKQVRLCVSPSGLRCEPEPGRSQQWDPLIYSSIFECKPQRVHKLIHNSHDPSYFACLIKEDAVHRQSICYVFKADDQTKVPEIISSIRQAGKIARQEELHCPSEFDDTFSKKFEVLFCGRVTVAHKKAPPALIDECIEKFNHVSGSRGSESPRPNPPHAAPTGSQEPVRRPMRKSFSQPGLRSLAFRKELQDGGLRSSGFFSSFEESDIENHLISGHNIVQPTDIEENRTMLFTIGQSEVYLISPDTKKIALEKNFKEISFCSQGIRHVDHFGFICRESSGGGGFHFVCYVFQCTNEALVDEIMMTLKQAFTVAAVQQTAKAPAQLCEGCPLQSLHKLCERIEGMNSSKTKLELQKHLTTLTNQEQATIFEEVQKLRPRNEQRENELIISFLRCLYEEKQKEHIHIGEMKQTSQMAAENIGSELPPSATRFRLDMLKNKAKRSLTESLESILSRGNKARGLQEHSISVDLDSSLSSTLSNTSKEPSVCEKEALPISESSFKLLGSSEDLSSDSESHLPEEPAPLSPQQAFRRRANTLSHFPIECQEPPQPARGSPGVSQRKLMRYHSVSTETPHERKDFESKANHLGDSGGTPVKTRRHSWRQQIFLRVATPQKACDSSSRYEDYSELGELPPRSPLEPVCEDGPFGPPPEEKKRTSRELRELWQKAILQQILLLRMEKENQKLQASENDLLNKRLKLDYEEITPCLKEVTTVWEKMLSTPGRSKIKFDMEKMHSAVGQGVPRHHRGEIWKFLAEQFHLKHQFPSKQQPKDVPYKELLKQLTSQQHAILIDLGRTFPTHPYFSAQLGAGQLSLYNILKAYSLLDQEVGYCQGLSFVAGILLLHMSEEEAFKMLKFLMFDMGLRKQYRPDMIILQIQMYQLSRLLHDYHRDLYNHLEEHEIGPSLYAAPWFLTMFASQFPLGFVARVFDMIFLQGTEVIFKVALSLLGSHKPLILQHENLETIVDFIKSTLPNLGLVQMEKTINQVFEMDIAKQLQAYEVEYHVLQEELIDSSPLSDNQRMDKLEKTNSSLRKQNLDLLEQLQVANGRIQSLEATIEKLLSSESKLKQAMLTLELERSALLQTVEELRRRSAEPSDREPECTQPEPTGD

log2 ratio of iodoacetamide-alkyne labeling, inactive:
UniProt Q7LBC6_C1470 0.156
UniProt Q8IX01_C447 0.00033
UniProt Q7L2H7_C134 -0.236
MED13L C1204 (UniProt Q71F56) 0.368
CAND1 C571 (UniProt Q86VP6) 0.109
PARG C515 (UniProt Q86W56) 0.342
UniProt Q7Z2Z2_C604 -0.126
PHC2 C740 (UniProt Q8IXK0) 0.279
CENPV C240 (UniProt Q7Z7K6) -0.000827
PHF6 C128 (UniProt Q8IWS0) 0.0252
SETX C2451 (UniProt Q7Z333) 0.236
CYFIP1 C1088 (UniProt Q7L576) -0.0483
ANKMY2 C277 (UniProt Q8IV38) 0.0171
TBC1D1 C1160 (UniProt Q86TI0) 0.518
UniProt Q7Z5K2_C964 0.0166

Reprinted from the listing for reference:
log2 ratio of iodoacetamide-alkyne labeling, inactive:
PHC2 C740 (UniProt Q8IXK0) 0.279
CENPV C240 (UniProt Q7Z7K6) -0.000827
